# The supplement of paper PMC10382679
# Single values of this set are uncertain.
# B1: Rpb7; numbered along this chain (parent)
# chain: MFFIKDLSLNITLHPSFFGPRMKQYLKTKLLEEVEGSCTGKFGYILCVLDYDNIDIQRGRILPTDGSAEFNVKYRAVVFKPFKGEVVDGTVVSCSQHGFEVQVGPMKVFVTKHLMPQDLTFNAGSNPPSYQSSEDVITIKSRIRVKIEGCISQVSSIHAIGSIKEDYLGAI
# Key:
# [1] = variants of: B1; assay: log2 fold change of mutant abundance, UV-irradiated vs unirradiated; higher = more UV resistant (enriched after UV); conditions: with Saccharomyces cerevisiae rad7Δ rad26Δ; UV dose (J/m2): 10; genetic background: rad7Δ rad26Δ rpb7Δ + plasmid RPB7 library; outgrowth: 10 cell divisions
# [2] = variants of: B1; assay: NOISeq theta enrichment statistic, UV-irradiated vs unirradiated (dimensionless); higher = more UV resistant (enriched after UV); conditions: with Saccharomyces cerevisiae rad7Δ rad26Δ; UV dose (J/m2): 10; genetic background: rad7Δ rad26Δ rpb7Δ + plasmid RPB7 library; outgrowth: 10 cell divisions
Variant,log2 fold change of mutant abundance [1],NOISeq theta enrichment statistic [2]
F121N,-0.437,-0.327
F121C,-0.0117,-0.0371
F121D,0.0747,0.068
F121M,-0.0907,-0.0617
F121L,-0.0778,-0.405
F121P,1.06,0.608
F121G,-0.471,-0.293
F121H,-0.118,-0.063
P105T,-0.00773,-0.0329
P105V,0.589,0.347
P105Y,-0.414,-0.259
K112T,0.105,0.245
K112E,0.0733,0.191
K112I,0.271,0.194
K112Q,-0.159,-0.29
K112N,0.0484,0.195
K112W,0.108,0.0661
K112M,-0.0586,-0.126
K112H,0.776,0.538
K112S,-0.187,-0.143
K112G,-0.028,-0.026
K112V,-0.323,-0.179
K112A,0.172,0.128
K112L,0.115,0.0458

Variant,log2 fold change of mutant abundance [1],NOISeq theta enrichment statistic [2]
K112R,-0.0955,-0.506
K112P,-0.419,-0.293
D118R,0.0458,0.0467
D118G,0.00739,0.0268
D118A,0.0676,0.129
D118I,0.0268,0.0162
D118E,0.00598,0.046
D118K,0.221,0.199
D118H,-0.0822,-0.0953
D118Q,0.159,0.0994
D118S,0.209,0.189
D118T,-0.0406,-0.028
D118Y,-0.13,-0.281
D118C,-0.203,-0.134
D118N,-0.0963,-0.22
D118V,-0.102,-0.274
L114W,0.107,0.0875
L114R,-0.103,-0.403
L114A,-0.327,-0.238
L114Q,-0.571,-1.56
L114I,0.369,0.298
L114M,0.0506,0.186
L114V,0.0767,0.11
L114F,-0.186,-0.149

# Quoted from the listing.
# L114A | NOISeq theta enrichment statistic [2]: -0.238
# F121P | NOISeq theta enrichment statistic [2]: 0.608
# K112N | NOISeq theta enrichment statistic [2]: 0.195
# L114V | NOISeq theta enrichment statistic [2]: 0.11
# P105T | NOISeq theta enrichment statistic [2]: -0.0329
# K112L | NOISeq theta enrichment statistic [2]: 0.0458

# (cont.)

Variant,log2 fold change of mutant abundance [1],NOISeq theta enrichment statistic [2]
L114P,-0.232,-0.512
L114H,0.352,0.326
L114K,-0.142,-0.113
L114T,-0.049,-0.0361
L114S,0.0325,0.0412
H113C,-0.927,-0.514
H113L,0.695,1.63
H113Q,0.255,1.1
H113S,-0.0122,-0.0125
H113T,-0.0237,-0.0329
H113Y,-0.0619,-0.212
H113R,0.164,0.582
H113G,0.749,0.474
H113E,0.256,0.249
H113F,0.666,0.293
H113K,0.109,0.134
H113A,0.101,0.12
H113D,1.04,1.41
H113N,0.223,0.854
H113P,0.0912,0.309
H113V,0.798,0.548
H113I,0.137,0.104
M115Q,-0.295,-0.225
M115R,0.00418,0.0117

Variant,log2 fold change of mutant abundance [1],NOISeq theta enrichment statistic [2]
M115C,-0.426,-0.214
M115G,-0.0576,-0.0488
M115S,0.0205,0.0181
M115E,0.0405,0.038
M115I,0.162,0.875
M115W,0.353,0.285
M115F,0.507,0.395
M115V,0.0501,0.186
M115D,0.0664,0.0727
M115T,-0.0628,-0.149
M115K,-0.118,-0.378
M115A,-0.548,-0.351
M115L,0.0175,0.0596
M115N,-0.405,-0.295
F109I,-0.123,-0.683
F109V,0.0334,0.256
F109A,0.182,0.125
F109Y,-0.0955,-0.439
F109H,-0.546,-0.39
F109R,-0.503,-0.404
F109C,0.0831,0.251
F109L,-0.258,-1.65
F109M,-0.0673,-0.0628
F109S,-0.125,-0.198

Variant,log2 fold change of mutant abundance [1],NOISeq theta enrichment statistic [2]
F109N,-0.102,-0.109
F109T,-0.11,-0.0747
F109W,-0.356,-0.282
F109G,-0.196,-0.192
F109D,0.064,0.0626
V110C,0.0843,0.0919
V110T,0.65,0.349
V110E,0.0411,0.0949
V110R,0.071,0.0669
V110D,-0.0295,-0.021
V110I,0.00671,0.00511
V110A,-0.0185,-0.0431
V110L,0.0382,0.108
V110Q,-0.372,-0.241
V110W,-0.0131,-0.0202
V110K,-0.636,-0.33
V110G,0.00373,0.021
V110M,0.184,0.387
V110S,0.102,0.0686
V110F,-0.0152,-0.0124
